Results reported in PubChem BioAssay AID1259354 (Paczesny and Yang Labs, IUPUI and University of Michigan, 2018).
Hit rate of the full screen: of about 78,000 compounds, about 1,800 (2.3%) were called active. Inconclusive means that the source gave no clear call. Such entries were picked first, then a sample of the others. Rule as the data show it: active = inhibition above about 30%; inconclusive = mostly about 10% to 28%; inactive = weaker than that.

The chains behind the UniProt entries cited, without tags or fusion partners. Where a name states a change or a piece, a line headed by the entry shows the natural chain unless it says otherwise.
UniProt Q01638: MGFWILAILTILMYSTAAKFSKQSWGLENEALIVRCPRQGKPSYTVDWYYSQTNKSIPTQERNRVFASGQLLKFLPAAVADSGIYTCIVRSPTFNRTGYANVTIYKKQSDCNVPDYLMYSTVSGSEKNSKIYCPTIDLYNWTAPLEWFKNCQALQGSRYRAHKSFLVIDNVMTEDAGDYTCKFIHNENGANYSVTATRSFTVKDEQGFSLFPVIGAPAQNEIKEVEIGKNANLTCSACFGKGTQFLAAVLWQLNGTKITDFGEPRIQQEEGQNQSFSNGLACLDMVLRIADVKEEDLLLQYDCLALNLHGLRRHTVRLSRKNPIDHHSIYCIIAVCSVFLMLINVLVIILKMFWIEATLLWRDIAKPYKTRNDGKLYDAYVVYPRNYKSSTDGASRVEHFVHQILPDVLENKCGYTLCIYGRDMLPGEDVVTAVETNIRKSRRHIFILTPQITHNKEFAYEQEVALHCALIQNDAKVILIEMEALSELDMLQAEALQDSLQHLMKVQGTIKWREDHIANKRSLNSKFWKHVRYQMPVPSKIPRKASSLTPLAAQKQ

biological target: Interleukin-1 receptor-like 1 (Homo sapiens) (UniProt Q01638); assay: blocks human ST2 binding to IL-33, primary screen, biochemical, AlphaLISA (AID 1259354); settings: AlphaLISA ST2-Fc/biotin-IL-33 interaction, 1 h; at 17 µM, stronger effect = higher value

Question: `O=C1NC(=Nc2ccccc2Cl)S/C1=C/c1ccc([N+](=O)[O-])o1` was tested. Which inhibition did it give?
Answer: inconclusive: 25%

Question: For `O=C(Nc1ccccc1Br)C(Cc1ccccc1)N1C(=O)c2ccccc2C1=O` (stereo not drawn), which inhibition is on record?
Answer: inconclusive: 16%

Question: Which inhibition does the source give for `COc1cccc(C(=O)Nc2cccc(OCc3cc(=O)n4ccc(C)cc4n3)c2)c1` here?
Answer: inactive

Question: How did the inhibition turn out when `O=C(c1ccc(-n2cnnc2)cc1)N1CCCC(OCc2ccccn2)C1` (stereo not drawn) was run?
Answer: inconclusive: 18%

Question: How did the inhibition turn out when `Cc1ccc2nc(CN(C)C(=O)c3ccc(-n4cnnn4)cc3)[nH]c2c1` was run?
Answer: inactive

Question: How did the inhibition turn out when `CC1OC(OC2C(OC3C(O)C(C(=O)O)OC(OC4CCC5(C)C(CCC6(C)C5CCC57OCC8(CCC(C)(C(=O)O)CC85)C(O)CC67C)C4(C)C)C3OC3OC(CO)C(O)C(O)C3O)OC(CO)C(O)C2O)C(O)C(O)C1O` (stereo not drawn) was run?
Answer: inactive

Question: `COc1cccc(-n2cc(CN(C)Cc3ccc(O)c(Cl)c3)cn2)c1` was tested. Which inhibition did it give?
Answer: inactive

Question: How did the inhibition turn out when `CC(C)(C)CN1CC[C@H](c2nnc(-c3ccccc3)o2)C1` was run?
Answer: inconclusive: 13%

Question: `O=C(c1ccc(NC2=NC3CS(=O)(=O)CC3S2)cc1)N1CCCC1` (stereo not drawn) was tested. Which inhibition did it give?
Answer: inactive

Question: How did the inhibition turn out when `COc1ccccc1-c1nnc(SC)o1` was run?
Answer: inconclusive: 17%

Question: How did the inhibition turn out when `CCOC(=O)Cn1c(=O)n(-c2ccc(F)cc2)c2nc(-c3ccccc3OC)nc(C(N)=O)c21` was run?
Answer: inactive

Question: Which inhibition does the source give for `CCOC(=O)c1c(NC(=O)COc2ccccc2Br)sc(C(C)=O)c1C` here?
Answer: inactive

Question: `OCCN(Cc1ccccc1)Cc1ccccc1F` was tested. Which inhibition did it give?
Answer: inactive

Question: With `O=C(c1ccc(/C=C2\Sc3ccccc3N(Cc3ccc(F)cc3)C2=O)cc1)N1CCOCC1` as the compound, how does the inhibition read?
Answer: inconclusive: 18%

Question: With `CCCCN(CCCC)S(=O)(=O)c1ccc(C(=O)Nc2nnc(-c3ccc(F)cc3)o2)cc1` as the compound, how does the inhibition read?
Answer: inactive

Question: With `Cc1c(Br)c([N+](=O)[O-])nn1CC(=O)Nc1ccc(S(N)(=O)=O)cc1` as the compound, how does the inhibition read?
Answer: inactive

Question: For `COc1ccc(-n2ncc3c(N4CCN(c5cccc(OC)c5)CC4)ncnc32)cc1`, which inhibition is on record?
Answer: inconclusive: 12%

Question: For `CC(Cc1ccc(F)cc1)N1CCN(c2ccccc2)CC1` (stereo not drawn), which inhibition is on record?
Answer: inconclusive: 26%

Question: How did the inhibition turn out when `COc1ccc([N+](=O)[O-])cc1-n1cccc1` was run?
Answer: active: 39%

Question: `CCOC(=O)C1(C)C(=O)OC(c2ccc(Cl)cc2)C(C)(C)C1=O` (stereo not drawn) was tested. Which inhibition did it give?
Answer: inactive

Question: For `O=C(Cc1ccc(Br)cc1)Nc1cccc(F)c1`, which inhibition is on record?
Answer: inconclusive: 10%

Question: With `CCCCNC(=O)c1cc(=O)[nH]c2ccc(S(=O)(=O)N3CCC(C)CC3)cc12` as the compound, how does the inhibition read?
Answer: inconclusive: 16%

Question: How did the inhibition turn out when `CCOCCCNS(=O)(=O)c1cc(Br)cc2c1N(C(=O)C1CC1)CC2` was run?
Answer: inconclusive: 16%

Question: How did the inhibition turn out when `O=C(Nc1ccccc1O)c1cc2ccccc2oc1=O` was run?
Answer: active: 34%

Question: With `CCc1c(C)nc(Nc2nc(C)c3ccccc3n2)[nH]c1=O` as the compound, how does the inhibition read?
Answer: inconclusive: 11%

Question: Which inhibition does the source give for `O=C(c1ccccc1N1CCS(=O)(=O)CC1)N1CCC2(CCCO2)CC1` here?
Answer: inconclusive: 12%

Question: For `COc1ccccc1N1CCN([C@@H]2[C@H](O)[C@H](CO)O[C@@H]2CNC(=O)C2CCCC2)CC1`, which inhibition is on record?
Answer: inactive

Question: How did the inhibition turn out when `CCOc1ccc(C2=C/C(=C\c3cccs3)C(=O)O2)cc1` was run?
Answer: active: 31%

Question: With `Cc1cc(C)cc(NC(=O)NCCc2nc3cccnc3n2C2CCCCC2)c1` as the compound, how does the inhibition read?
Answer: inconclusive: 19%

Question: Which inhibition does the source give for `O=C(NCc1ccco1)c1ccc2c(c1)N(Cc1ccccc1Cl)C(=O)CS2` here?
Answer: inactive

Question: For `CCOC(=O)C1(CCOc2ccccc2)CCCN(C(=O)c2n[nH]c3ccccc23)C1` (stereo not drawn), which inhibition is on record?
Answer: inconclusive: 17%

Question: Which inhibition does the source give for `Cc1ccc(NC(=O)CSc2nc3c(c(=O)n2-c2ccccc2)SCC3)cc1` here?
Answer: inconclusive: 25%

Question: `O=C1CN(C(=O)c2nn(Cc3ccccc3)c3c2CN(C(=O)CCc2cccs2)CC3)CCN1` was tested. Which inhibition did it give?
Answer: inactive

Question: `CCOc1ccc(NC(=O)c2cc(C)cc(C)c2)c([N+](=O)[O-])c1` was tested. Which inhibition did it give?
Answer: inconclusive: 10%

Question: For `COc1ccc(NC(=O)c2cnn3c(C(F)(F)F)cc(-c4ccco4)nc23)cc1`, which inhibition is on record?
Answer: inactive

Question: Which inhibition does the source give for `O=C(Nc1nonc1-c1nc2ccccc2[nH]1)c1ccccc1Cl` here?
Answer: active: 32%

Question: Which inhibition does the source give for `O=C(NCCO)C(=O)NC1CCCCC1` here?
Answer: inconclusive: 10%

Question: How did the inhibition turn out when `COc1ccc(CN2CCNC(=O)C2CC(=O)N(C)CCC2CCOCC2)cc1OC` (stereo not drawn) was run?
Answer: inconclusive: 12%

Question: Which inhibition does the source give for `COc1ccc(-c2nnc(NC(=O)c3ccc(S(=O)(=O)N4CCCCC4)cc3)o2)cc1` here?
Answer: inconclusive: 16%

Question: Which inhibition does the source give for `C/C=C/C(=O)Nc1ccccc1-c1c(Cl)cccc1OC` here?
Answer: inconclusive: 16%

Question: With `Cc1cc(N2CCOCC2)nc2ccc(NC(=O)CCC(=O)Nc3ccc4c(c3)OCCO4)cc12` as the compound, how does the inhibition read?
Answer: inactive

Question: With `C=CCNC(=O)C(=O)NCc1ccc(Cl)cc1` as the compound, how does the inhibition read?
Answer: inconclusive: 13%

Question: For `Cc1ccn2c(NC(=O)CC(C)(C)C)c(-c3ccc(F)cc3)nc2c1`, which inhibition is on record?
Answer: inactive

Question: Which inhibition does the source give for `O=C1CO[C@H]2CN(Cc3ccc(F)c(F)c3)C[C@H]2N1Cc1ccc(F)cc1` here?
Answer: inconclusive: 18%

Question: `CCOC(=O)C1=C(N)OC2=C(C(=O)CC(C)(C)C2)C1c1ccc(OCc2ccccc2)cc1` (stereo not drawn) was tested. Which inhibition did it give?
Answer: inactive

Question: With `CN(CC(=O)NC1CCCCCC1)S(=O)(=O)c1ccc2c(c1)CCC(=O)N2` as the compound, how does the inhibition read?
Answer: inconclusive: 12%

Question: Which inhibition does the source give for `N#C/C(=C\c1ccccc1Cl)c1nc2ccccc2[nH]1` here?
Answer: inconclusive: 17%

Question: How did the inhibition turn out when `CCn1c(C(=O)O)c(CC(=O)N(C)c2ccc(F)cc2)c2ccccc21` was run?
Answer: inactive

Question: Which inhibition does the source give for `N#Cc1nc(COc2ccccc2Cl)oc1NCc1cccnc1` here?
Answer: inconclusive: 19%

Question: `COC(=O)C1=C(N)OC2=C(C(=O)CC(c3ccccc3)C2)C1c1cccc(OC)c1` (stereo not drawn) was tested. Which inhibition did it give?
Answer: inconclusive: 14%

Question: How did the inhibition turn out when `CCOc1ccccc1N1CCN(C(=O)C2CCCCC2C(=O)O)CC1` (stereo not drawn) was run?
Answer: inactive

Question: With `O=C(Cn1nnc(-c2ccccc2Cl)n1)Nc1cccc(Br)c1` as the compound, how does the inhibition read?
Answer: inconclusive: 21%

Question: `Oc1ccc(C=Nc2ccc3oc(-c4ccc(F)cc4)nc3c2)c(O)c1` was tested. Which inhibition did it give?
Answer: inactive

Question: With `CCNc1nc(-c2nnc(-c3ccc(C)cc3)o2)nc2ccccc12` as the compound, how does the inhibition read?
Answer: inactive

Question: `C=CCSC1=C(C#N)C(c2ccc(F)cc2)CC(=O)N1` (stereo not drawn) was tested. Which inhibition did it give?
Answer: inconclusive: 21%

Question: For `O=c1/c(=C/c2cccnc2)sc2n1CN(c1cccc(F)c1)CN=2`, which inhibition is on record?
Answer: inconclusive: 16%

Question: For `O=c1c2oc3ccccc3c2ncn1Cc1ccccc1`, which inhibition is on record?
Answer: inconclusive: 19%

Question: How did the inhibition turn out when `CCOc1ccc(C2C(C(=O)OCC(C)C)=C(C)N=C3SCCC(=O)N32)cc1OCC` (stereo not drawn) was run?
Answer: inconclusive: 13%

Question: How did the inhibition turn out when `Cc1ccc(F)cc1CC(=O)N(C)CCc1scnc1C` was run?
Answer: inconclusive: 15%

Question: `O=S(=O)(Nc1ccc(F)c(F)c1)c1ccc(Br)s1` was tested. Which inhibition did it give?
Answer: inactive

Question: For `O=C(Nc1ccc(N2CCCC2)c(Cl)c1)c1ccc([N+](=O)[O-])cc1`, which inhibition is on record?
Answer: inconclusive: 15%

Question: With `COc1ccc(/C(N)=N\OC(=O)c2ccc(C)c(C)c2)cc1OC` as the compound, how does the inhibition read?
Answer: inactive

Question: `Cc1ccc(Nc2nc(-c3ccccc3)cs2)cc1C` was tested. Which inhibition did it give?
Answer: inconclusive: 23%

Question: `CC(=O)OC1CC2(C)C3CC=C4C(CC(OC5OC(CO)C(O)C(O)C5O)C(O)C4(C)C)C3(C)CCC2(C)C1C(C)(O)C(=O)CCC(C)(C)O` (stereo not drawn) was tested. Which inhibition did it give?
Answer: inactive

Question: `COc1ccc(/C=C2\C(=O)N(c3cccc(Cl)c3)N=C2C)cc1Br` was tested. Which inhibition did it give?
Answer: inactive

Question: For `Cc1cccn2c(CC(=O)N(C)C(C)c3nccs3)cnc12` (stereo not drawn), which inhibition is on record?
Answer: inactive

Question: With `COc1cccc(OC)c1OCCNCC1CSc2ccccc2O1` (stereo not drawn) as the compound, how does the inhibition read?
Answer: inconclusive: 12%

Question: For `CN1C[C@H](O)C[C@H]1c1nc(-c2ccc3c(c2)OCO3)no1`, which inhibition is on record?
Answer: inconclusive: 20%

Question: How did the inhibition turn out when `Cc1cc(C)n(CC(C)n2ccnc2C2CCN(C(C)C)CC2)n1` (stereo not drawn) was run?
Answer: inconclusive: 17%

Question: How did the inhibition turn out when `CCOc1ccccc1NC(=O)c1c(NC(=O)c2ccco2)sc2c1CCCCC2` was run?
Answer: inconclusive: 11%

Question: How did the inhibition turn out when `COc1cc(-c2[nH]nc3c2C(c2ccccc2Cl)C(C#N)=C(N)O3)cc(OC)c1OC` (stereo not drawn) was run?
Answer: inactive

Question: How did the inhibition turn out when `OC[C@H]1CCN(C2CCN(c3ccc4c(c3)OCO4)CC2)C[C@@H]1O` was run?
Answer: inactive

Question: Which inhibition does the source give for `CCc1cc2c(=O)c(-c3nc4ccccc4[nH]3)coc2cc1O` here?
Answer: inconclusive: 11%

Question: Which inhibition does the source give for `O=C(NC1CC(=O)N(c2cccc(F)c2)C1)c1ccco1` (stereo not drawn) here?
Answer: inactive

Question: `CCCS(=O)(=O)N1CCCC(C(=O)NCCCN2CCCC2=O)C1` (stereo not drawn) was tested. Which inhibition did it give?
Answer: inconclusive: 15%

Question: For `COc1cc2c(C(=O)N3CCC(C)CC3)cn(CC(C)C)c(=O)c2cc1OC`, which inhibition is on record?
Answer: inconclusive: 18%

Question: With `O=C(O)c1ccc(Cl)c(S(=O)(=O)N2CCOCC2)c1` as the compound, how does the inhibition read?
Answer: inactive

Question: Which inhibition does the source give for `CCN1CCCC(CN(C)Cc2ccc(-n3ccnc3)cc2)C1` (stereo not drawn) here?
Answer: inconclusive: 10%

Question: For `Cc1cc(Cl)ccc1OCC(=O)Nc1cccc(-c2nc3ncccc3o2)c1`, which inhibition is on record?
Answer: inactive

Question: How did the inhibition turn out when `CCCS(=O)(=O)c1c(S(=O)(=O)CCC)c2c3ccccc3ccn2c1C(N)=O` was run?
Answer: inconclusive: 17%

Question: With `Cc1cc(CN2CCC(n3cc(Cc4ccccc4)nn3)CC2)n(C)n1` as the compound, how does the inhibition read?
Answer: inactive

Question: Which inhibition does the source give for `O=C(Nc1cccc([N+](=O)[O-])c1)c1ccco1` here?
Answer: inconclusive: 15%

Question: With `CN1C[C@@H](NC(=O)c2ccc(C(C)(C)C)cc2)C[C@H]1c1nc(-c2cccnc2)no1` as the compound, how does the inhibition read?
Answer: inconclusive: 14%

Question: With `Cn1c(=O)cc(SCC(=O)NC2CCCCC2)c2ccc(Cl)cc21` as the compound, how does the inhibition read?
Answer: inactive

Question: Which inhibition does the source give for `Cn1nc(-c2ccc(Cl)cc2)c2cc(C(=O)Nc3ccc4c(c3)OCCO4)sc21` here?
Answer: inactive

Question: Which inhibition does the source give for `O=C(NCc1ccccc1-n1ccnc1)c1ccc2c(c1)CCO2` here?
Answer: inconclusive: 15%

Question: Which inhibition does the source give for `CCOc1ccc(S(=O)(=O)N2CCN(c3nc(C)cc(Nc4ccc(C)cc4)n3)CC2)cc1` here?
Answer: inconclusive: 24%

Question: How did the inhibition turn out when `COc1cccc(/C=C2\N=C(SC)SC2=O)c1OCc1ccccc1` was run?
Answer: active: 40%

Question: `Cc1cc(C)c(OCC(=O)Nc2ccccc2I)c([N+](=O)[O-])c1` was tested. Which inhibition did it give?
Answer: inconclusive: 15%

Question: For `Cc1ccc(N2CCCS2(=O)=O)cc1NC(=O)COc1ccccc1C`, which inhibition is on record?
Answer: inconclusive: 13%

Question: How did the inhibition turn out when `CN1[C@@H](CCC(=O)NCc2ccccc2)CNC(=O)[C@@H]2[C@H]1CCN2CC(C)(C)C` was run?
Answer: inconclusive: 17%

Question: For `Cc1nc(NCCCN2CCOCC2)c2cc(-c3ccccc3)sc2n1`, which inhibition is on record?
Answer: inactive

Question: `CSc1ccc(-c2nc(CSCC(=O)N3CCN(Cc4ccccc4)CC3)c(C)o2)cc1` was tested. Which inhibition did it give?
Answer: inactive
